PubChem BioAssay AID1159584 | Peter MacCallum Cancer Centre, 2016
The deposit covers about 18,000 reagents; shown is an unselected part. Not all columns of the deposit are shown. Reagent sequences are not shown. Not stated in the record: the amount of reagent, the time to read-out.

Screen: 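Genes that CDH1-null MCF10A cells selectively depend on to survive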 (primary screen)
System: human MCF10A breast epithelial cells, parental and CDH1-null
Knock-down reagent: siRNA against human genes
Measurement: 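ATP luminescence (CellTiter-Glo) viability per line relative to mean mock wells over all plates, and the ratio of CDH1-null to parental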
Scale: CDH1-null / parental viability ratio: higher = CDH1-null cells survive relatively better than parental; CDH1-null viability vs mock: higher = more viable CDH1-null cells

What did the screen give for AXDND1?
CDH1-null / parental viability ratio: 0.93; CDH1-null viability vs mock (fraction of mock): 1.02

Which result is listed for NAGPA?
CDH1-null / parental viability ratio: 0.72; CDH1-null viability vs mock (fraction of mock): 0.6

How did the screen score C1orf105?
CDH1-null / parental viability ratio: 1.06; CDH1-null viability vs mock (fraction of mock): 0.7

For GRIN2C, how do the results read?
CDH1-null / parental viability ratio: 1.12; CDH1-null viability vs mock (fraction of mock): 0.99

With H2AC17, what does the deposit list?
CDH1-null / parental viability ratio: 1.17; CDH1-null viability vs mock (fraction of mock): 0.98

With SPTBN2, what does the deposit list?
CDH1-null / parental viability ratio: 0.93; CDH1-null viability vs mock (fraction of mock): 0.8

For MADCAM1, how do the results read?
CDH1-null / parental viability ratio: 1.01; CDH1-null viability vs mock (fraction of mock): 0.99

With PRDM8, how do the results read?
CDH1-null / parental viability ratio: 1; CDH1-null viability vs mock (fraction of mock): 0.24

For LRRC47, what does the deposit list?
CDH1-null / parental viability ratio: 0.72; CDH1-null viability vs mock (fraction of mock): 0.58

For SRMS, what does the deposit list?
CDH1-null / parental viability ratio: 0.94; CDH1-null viability vs mock (fraction of mock): 0.67

How did the screen score CCDC88B?
CDH1-null / parental viability ratio: 0.79; CDH1-null viability vs mock (fraction of mock): 1.12

What is on record for PEG10?
CDH1-null / parental viability ratio: 1.11; CDH1-null viability vs mock (fraction of mock): 0.9

Which result is listed for MRPL14?
CDH1-null / parental viability ratio: 1.02; CDH1-null viability vs mock (fraction of mock): 0.84

Which result is listed for TCEAL4?
CDH1-null / parental viability ratio: 1.37; CDH1-null viability vs mock (fraction of mock): 0.74

How did the screen score TDRD5?
CDH1-null / parental viability ratio: 0.94; CDH1-null viability vs mock (fraction of mock): 0.66

With SUMF1, how do the results read?
CDH1-null / parental viability ratio: 1.1; CDH1-null viability vs mock (fraction of mock): 0.92

Part of the list above, reformatted.
| target gene | CDH1-null / parental viability ratio | CDH1-null viability vs mock (fraction of mock) |
| --- | --- | --- |
| H2AC17 | 1.17 | 0.98 |
| SPTBN2 | 0.93 | 0.8 |
| MADCAM1 | 1.01 | 0.99 |
| PRDM8 | 1 | 0.24 |

Next results follow:
What is on record for DDX6?
CDH1-null / parental viability ratio: 1.02; CDH1-null viability vs mock (fraction of mock): 1.04

For DACT2, what does the deposit list?
CDH1-null / parental viability ratio: 0.61; CDH1-null viability vs mock (fraction of mock): 0.45

With OSCP1, how do the results read?
CDH1-null / parental viability ratio: 0.91; CDH1-null viability vs mock (fraction of mock): 0.73

What is on record for ASB16?
CDH1-null / parental viability ratio: 1.07; CDH1-null viability vs mock (fraction of mock): 0.88

How did the screen score NDNF?
CDH1-null / parental viability ratio: 0.98; CDH1-null viability vs mock (fraction of mock): 0.78

What is on record for ZSWIM4?
CDH1-null / parental viability ratio: 1.12; CDH1-null viability vs mock (fraction of mock): 0.83

For RHAG, what was measured?
CDH1-null / parental viability ratio: 1; CDH1-null viability vs mock (fraction of mock): 0.68

What did the screen give for OSCAR?
CDH1-null / parental viability ratio: 0.81; CDH1-null viability vs mock (fraction of mock): 0.55

For ZNF780B, what was measured?
CDH1-null / parental viability ratio: 0.95; CDH1-null viability vs mock (fraction of mock): 0.94

For OR4N4, what does the deposit list?
CDH1-null / parental viability ratio: 0.85; CDH1-null viability vs mock (fraction of mock): 0.5

With H2AB3, what was measured?
CDH1-null / parental viability ratio: 1.14; CDH1-null viability vs mock (fraction of mock): 0.66

With SPRED3, what was measured?
CDH1-null / parental viability ratio: 0.76; CDH1-null viability vs mock (fraction of mock): 0.52

Which result is listed for ABCA9?
CDH1-null / parental viability ratio: 0.96; CDH1-null viability vs mock (fraction of mock): 1.12

With OR4E2, what was measured?
CDH1-null / parental viability ratio: 0.86; CDH1-null viability vs mock (fraction of mock): 0.6

What did the screen give for ZNF473?
CDH1-null / parental viability ratio: 1.01; CDH1-null viability vs mock (fraction of mock): 0.79

With SF3A1, what was measured?
CDH1-null / parental viability ratio: 1.17; CDH1-null viability vs mock (fraction of mock): 0.34

What did the screen give for ZNF687?
CDH1-null / parental viability ratio: 0.88; CDH1-null viability vs mock (fraction of mock): 0.75

What is on record for MLXIPL?
CDH1-null / parental viability ratio: 0.91; CDH1-null viability vs mock (fraction of mock): 0.78

For ANP32B, how do the results read?
CDH1-null / parental viability ratio: 1.11; CDH1-null viability vs mock (fraction of mock): 1.02
